This experiment addresses T1, Cbp80 (YMR125W; STO1; CBC1), large subunit of the yeast nuclear cap binding complex (S. cerevisiae) (UniProt P34160).
T1 sequence: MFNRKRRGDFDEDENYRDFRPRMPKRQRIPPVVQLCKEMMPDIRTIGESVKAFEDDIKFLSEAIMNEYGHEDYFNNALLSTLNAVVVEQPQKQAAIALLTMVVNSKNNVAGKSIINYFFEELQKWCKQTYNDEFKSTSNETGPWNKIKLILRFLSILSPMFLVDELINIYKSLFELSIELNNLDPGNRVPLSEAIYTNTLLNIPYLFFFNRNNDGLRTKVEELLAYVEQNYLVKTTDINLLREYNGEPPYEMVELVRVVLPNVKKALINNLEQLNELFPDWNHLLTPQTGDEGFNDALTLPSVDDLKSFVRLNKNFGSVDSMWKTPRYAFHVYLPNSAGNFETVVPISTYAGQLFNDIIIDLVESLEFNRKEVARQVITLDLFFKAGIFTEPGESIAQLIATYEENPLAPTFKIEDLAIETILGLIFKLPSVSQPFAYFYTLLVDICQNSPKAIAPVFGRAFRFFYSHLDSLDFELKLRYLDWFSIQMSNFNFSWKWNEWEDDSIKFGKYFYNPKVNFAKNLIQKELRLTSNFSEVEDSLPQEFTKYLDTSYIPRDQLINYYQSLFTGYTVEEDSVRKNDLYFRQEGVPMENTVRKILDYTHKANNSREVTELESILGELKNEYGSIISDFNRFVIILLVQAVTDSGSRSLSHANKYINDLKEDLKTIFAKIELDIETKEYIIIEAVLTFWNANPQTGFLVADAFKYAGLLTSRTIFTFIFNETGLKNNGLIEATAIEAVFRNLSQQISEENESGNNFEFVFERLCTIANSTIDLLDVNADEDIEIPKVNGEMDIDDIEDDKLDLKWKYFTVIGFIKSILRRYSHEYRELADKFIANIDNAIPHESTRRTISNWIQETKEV
Nature of the experiment: co-purification (nickel affinity, then SEC); Cbp80 and Cbp20 co-expressed in E. coli from one operon in the pET28M N-6xHis-SUMO vector; Ni-NTA Superflow with washes of 200 mM and 1 M NaCl, elution with 300 mM imidazole; then Superdex 200 10/300 GL in 0.1 M NaHCO3 pH 8.3 with 0.5 M NaCl, or PBS with 0.5 M NaCl.

No constants are given. Whether binding was seen depends on the method and setting. Some binding calls cover weakened binding; strength is not graded here.

B1: Cbp20 (YPL178W; CBC2), small subunit of the yeast nuclear cap binding complex (protein, UniProt Q08920 1-208)
chain: MSLEEFDEVKYDHSTKRLDTPSRYLLRKARRNPNGLQELRESMKSSTIYVGNLSFYTSEEQIYELFSKCGTIKRIIMGLDRFKFTPCGFCFIIYSCPDEALNALKYLSDTKLDEKTITIDLDPGFEDGRQFGRGKSGGQVSDELRFDFDASRGGFAIPFAERVGVPHSRFDNSSSQSNTNNYIPPPDAMGTFRPGFDEEREDDNYVPQ
Consider B1, for which the binding entry is on record as “binds”.

The values are drawn from PMC9825183, “A cap 0-dependent mRNA capture method to analyze the yeast transcriptome”.
